Consider one molecule from paper PMC6851490, “Target highlights in CASP13: Experimental target structures through the eyes of their authors” (Proteins, 2019).

This test deals with gp37 (distal part) of the Salmonella phage S16 long tail fiber (Salmonella phage S16). The experiment in a line: crystal structure; distal part of gp37 connected to gp38, phage S16, PDB 6F45, 1.70 Å; both purified.

No constants are given. Whether binding was seen depends on the method and setting. Binding can be weak; no strength is given.

B1: gp38 adhesin of the Salmonella phage S16 long tail fiber (protein, UniProt M1EBB2 1-249)
chain: MAVQGPWVGSSYVAETGQNWASLAANELRVTERPFWISSFIGRSKEEIWEWTGENHSFNKDWLIGELRNRGGTPVVINIRAHQVSYTPGAPLFEFPGDLPNAYITLNIYADIYGRGGTGGVAYLGGNPGGDCIHNWIGNRLRINNQGWICGGGGGGGGFRVGHTEAGGGGGRPLGAGGVSSLNLNGDNATLGAPGRGYQLGNDYAGNGGDVGNPGSASSAEMGGGAAGRAVVGTSPQWINVGNIAGSWL
Regarding B1, the binding result was “binds”.
